The chains behind the UniProt entries cited, without tags or fusion partners. Residues count along the entry.
UniProt P16422, 24-314: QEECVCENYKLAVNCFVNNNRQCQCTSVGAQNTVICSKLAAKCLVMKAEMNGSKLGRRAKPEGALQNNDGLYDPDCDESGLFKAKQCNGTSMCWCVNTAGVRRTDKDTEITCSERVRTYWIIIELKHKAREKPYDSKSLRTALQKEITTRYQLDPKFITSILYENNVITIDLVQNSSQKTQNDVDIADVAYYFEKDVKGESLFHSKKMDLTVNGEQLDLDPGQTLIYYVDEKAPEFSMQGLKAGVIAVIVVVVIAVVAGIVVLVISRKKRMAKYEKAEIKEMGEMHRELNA
UniProt P08962, 2-238: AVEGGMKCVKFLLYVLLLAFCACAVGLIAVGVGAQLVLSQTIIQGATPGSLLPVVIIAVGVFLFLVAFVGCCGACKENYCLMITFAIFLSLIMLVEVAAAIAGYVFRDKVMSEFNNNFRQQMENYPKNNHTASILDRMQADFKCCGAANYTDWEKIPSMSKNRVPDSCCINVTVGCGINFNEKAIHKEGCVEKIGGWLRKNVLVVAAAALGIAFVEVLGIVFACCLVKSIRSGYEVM

In PMC10674588:

Tests used:
[1] = molecular target: EpCAM (on HeLa cell-derived exosomes) (UniProt P16422); test: electrochemical nanochannel (I-V) capture of exosomes; conditions: whole exosomes, response similar to bare film; 5' CHO-(CH2)6; HeLa exosomes (resuspended in PBS) on BSA-blocked aptamer-PAA film, 120 min; I-V at -1.2 V, 10 mM KCl electrolyte (stated for film characterization); protein on the cell surface; single-stranded DNA
[2] = molecular target: CD63 (on HeLa cell-derived exosomes) (UniProt P08962); test: as above; conditions: whole exosomes, response similar to bare film; 5' CHO-(CH2)6; HeLa exosomes (resuspended in PBS) on BSA-blocked aptamer-PAA film, 120 min; I-V at -1.2 V, 10 mM KCl electrolyte (stated for film characterization); protein on the cell surface; single-stranded DNA

## GGGGTGGGGTAGTGGTATGGAGCG [Random DNA]
[1]
  binding result: no binding
[2]
  binding result: no binding

Construct, isoform or probe ends are uncertain for at least one entry. Where cells or extracts were used, other partners may take part. Negatives hold for the conditions tested. At least one verdict was read from the data and is not stated in words by the source.
